Values from PubChem BioAssay AID1259405 (NCATS, 2018)

Test: 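Mouse-designed siRNAs used to find CHO productivity engineering targets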 (primary screen)
System: Chinese hamster CHO-K1 ovary cells with stable secreted eGFP expression
Reagent: single siRNA against mouse genes, 0.8 pmol siRNA per well (2 µl of 400 nM stock)
Time to read-out: 3 days
Measurement: 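Per-well intracellular GFP measured by laser scanning cytometry, plus viability from ATP luminescence, each relative to plate median of non-targeting control wells, in %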
Scale: GFP, % of control: higher = more GFP per well, higher productivity; viability (ATP), % of control: higher = more viable cells (more ATP)
Rule for the call: 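a knock-down is called active if GFP reaches 120% or more of non-targeting control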
Here is an unselected part of about 50,000 reagents. Of all reagents, about 4,000 (8%) got an active call. 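Mouse siRNA library applied to hamster cells; one well for each siRNA.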 Entries without a mark were called inactive. The numbers tell different reagents against one gene apart.

GFP, % of control | viability (ATP), % of control | gene | siRNA no.
46.5 | 64.3 | Or6c88 (olfactory receptor family 6 subfamily C member 88) | 1
63.6 | 57.2 | Or6c88 (olfactory receptor family 6 subfamily C member 88) | 2
102 | 75.6 | Or6c88 (olfactory receptor family 6 subfamily C member 88) | 3
68.1 | 59.8 | Net1 (neuroepithelial cell transforming gene 1) | 1
75.5 | 85.7 | Net1 (neuroepithelial cell transforming gene 1) | 2
58.8 | 59.9 | Net1 (neuroepithelial cell transforming gene 1) | 3
70.5 | 92.8 | Fat4 (FAT atypical cadherin 4) | 1
63 | 51.3 | Fat4 (FAT atypical cadherin 4) | 2
66.5 | 52.4 | Fat4 (FAT atypical cadherin 4) | 3
48.8 | 66.4 | Prkg2 (protein kinase, cGMP-dependent, type II) | 1
119 | 76.4 | Safb2 (scaffold attachment factor B2) | 1
75.3 | 53.6 | Safb2 (scaffold attachment factor B2) | 2
89 | 95.6 | Safb2 (scaffold attachment factor B2) | 3
85.1 | 74.3 | Tgfbr3 (transforming growth factor, beta receptor III) | 1
58.6 | 44.9 | Tgfbr3 (transforming growth factor, beta receptor III) | 2
63 | 59.4 | Tgfbr3 (transforming growth factor, beta receptor III) | 3
9.21 | 7.64 | Ap3d1 (adaptor-related protein complex 3, delta 1 subunit) | 1
72.3 | 75.5 | Ap3d1 (adaptor-related protein complex 3, delta 1 subunit) | 2
76.8 | 48.7 | Ap3d1 (adaptor-related protein complex 3, delta 1 subunit) | 3
82.3 | 28.7 | Or1s2 (olfactory receptor family 1 subfamily S member 1) | 1
83.6 | 65 | Or1s2 (olfactory receptor family 1 subfamily S member 1) | 2
54.4 | 75.4 | Or1s2 (olfactory receptor family 1 subfamily S member 1) | 3
121 (active) | 119 | Recql4 (RecQ protein-like 4) | 1
115 | 78.3 | Recql4 (RecQ protein-like 4) | 2
41.9 | 35 | Recql4 (RecQ protein-like 4) | 3
103 | 105 | Cyp2j11 (cytochrome P450, family 2, subfamily j, polypeptide 11) | 1
69.1 | 74.5 | Cyp2j11 (cytochrome P450, family 2, subfamily j, polypeptide 11) | 2
115 | 76.6 | Cyp2j11 (cytochrome P450, family 2, subfamily j, polypeptide 11) | 3
164 (active) | 84.5 | Gjd4 (gap junction protein, delta 4) | 1
58.8 | 74 | Gjd4 (gap junction protein, delta 4) | 2
37.8 | 52 | Gjd4 (gap junction protein, delta 4) | 3
76.9 | 49.7 | Elovl7 (ELOVL fatty acid elongase 7) | 1
65.9 | 82.8 | Elovl7 (ELOVL fatty acid elongase 7) | 2
49 | 46.1 | Elovl7 (ELOVL fatty acid elongase 7) | 3
48.6 | 68.1 | Insl5 (insulin-like 5) | 1
84.9 | 73.1 | Insl5 (insulin-like 5) | 2
119 | 84.3 | Insl5 (insulin-like 5) | 3
59.8 | 82.8 | Acyp2 (acylphosphatase 2, muscle type) | 1
47.5 | 38.9 | Acyp2 (acylphosphatase 2, muscle type) | 2
73.7 | 67.3 | Acyp2 (acylphosphatase 2, muscle type) | 3
43.3 | 45.1 | Arpc1a (actin related protein 2/3 complex, subunit 1A) | 1
68.3 | 67.7 | Arpc1a (actin related protein 2/3 complex, subunit 1A) | 2
66.1 | 78.5 | Arpc1a (actin related protein 2/3 complex, subunit 1A) | 3
83.2 | 76.3 | Adgrb2 (adhesion G protein-coupled receptor B2) | 1
103 | 81.1 | Adgrb2 (adhesion G protein-coupled receptor B2) | 2
81.2 | 59.5 | Adgrb2 (adhesion G protein-coupled receptor B2) | 3
105 | 71.5 | Cpt1b (carnitine palmitoyltransferase 1b, muscle) | 1
97.1 | 134 | Cpt1b (carnitine palmitoyltransferase 1b, muscle) | 2
87 | 91.4 | Cpt1b (carnitine palmitoyltransferase 1b, muscle) | 3
34.4 | 45.2 | Or2bd2 (olfactory receptor family 2 subfamily BD member 2) | 1
101 | 77.9 | Or2bd2 (olfactory receptor family 2 subfamily BD member 2) | 2
57 | 94.9 | Or2bd2 (olfactory receptor family 2 subfamily BD member 2) | 3
83.8 | 77.7 | Efcab5 (EF-hand calcium binding domain 5) | 1
73.3 | 71.5 | Efcab5 (EF-hand calcium binding domain 5) | 2
72.8 | 94.8 | Efcab5 (EF-hand calcium binding domain 5) | 3
71.7 | 78.2 | Serpina7 | 1
74.9 | 65.8 | Serpina7 | 2
81.1 | 81.1 | Serpina7 | 3

The list goes on; the last 9 above are carried over.
GFP, % of control | viability (ATP), % of control | gene | siRNA no.
34.4 | 45.2 | Or2bd2 (olfactory receptor family 2 subfamily BD member 2) | 1
101 | 77.9 | Or2bd2 (olfactory receptor family 2 subfamily BD member 2) | 2
57 | 94.9 | Or2bd2 (olfactory receptor family 2 subfamily BD member 2) | 3
83.8 | 77.7 | Efcab5 (EF-hand calcium binding domain 5) | 1
73.3 | 71.5 | Efcab5 (EF-hand calcium binding domain 5) | 2
72.8 | 94.8 | Efcab5 (EF-hand calcium binding domain 5) | 3
71.7 | 78.2 | Serpina7 | 1
74.9 | 65.8 | Serpina7 | 2
81.1 | 81.1 | Serpina7 | 3
70.9 | 88.3 | Stxbp6 (syntaxin binding protein 6 (amisyn)) | 1
58.2 | 69.9 | Stxbp6 (syntaxin binding protein 6 (amisyn)) | 2
41.5 | 35.7 | Stxbp6 (syntaxin binding protein 6 (amisyn)) | 3
36.6 | 21.4 | Frmd5 (FERM domain containing 5) | 1
123 (active) | 73.4 | Frmd5 (FERM domain containing 5) | 2
88.9 | 69.2 | Frmd5 (FERM domain containing 5) | 3
106 | 145 | Pqbp1 (polyglutamine binding protein 1) | 1
51.8 | 87.8 | Pqbp1 (polyglutamine binding protein 1) | 2
81.6 | 90.1 | Pqbp1 (polyglutamine binding protein 1) | 3
88.4 | 92.1 | Zfp84 (zinc finger protein 84) | 1
91.4 | 75 | Zfp84 (zinc finger protein 84) | 2
87.2 | 62 | Or1r1 (olfactory receptor family 1 subfamily JRmember 1) | 1
81.3 | 65.9 | Or1r1 (olfactory receptor family 1 subfamily JRmember 1) | 2
38.5 | 62.2 | Or1r1 (olfactory receptor family 1 subfamily JRmember 1) | 3
70.4 | 69.8 | Npr2 (natriuretic peptide receptor 2) | 1
54.2 | 81.3 | Npr2 (natriuretic peptide receptor 2) | 2
73.8 | 82.9 | Npr2 (natriuretic peptide receptor 2) | 3
75.3 | 55.9 | Zmynd10 (zinc finger, MYND domain containing 10) | 1
88.8 | 73.5 | Zmynd10 (zinc finger, MYND domain containing 10) | 2
71.5 | 60.2 | Zmynd10 (zinc finger, MYND domain containing 10) | 3
74.9 | 79.4 | Plk4 (polo like kinase 4) | 1
98.5 | 80.1 | Xpc (xeroderma pigmentosum, complementation group C) | 1
56.8 | 64.3 | Xpc (xeroderma pigmentosum, complementation group C) | 2
173 (active) | 125 | Galnt15 (polypeptide N-acetylgalactosaminyltransferase 15) | 1
74.2 | 99.9 | Galnt15 (polypeptide N-acetylgalactosaminyltransferase 15) | 2
85.3 | 104 | Galnt15 (polypeptide N-acetylgalactosaminyltransferase 15) | 3
96.4 | 87 | Galnt15 (polypeptide N-acetylgalactosaminyltransferase 15) | 4
79.2 | 77.2 | Galnt15 (polypeptide N-acetylgalactosaminyltransferase 15) | 5
76 | 87.5 | Galnt15 (polypeptide N-acetylgalactosaminyltransferase 15) | 6
